## Library screen at single concentrations

Values are the deposited “Percent Effect”, in %. How 0% and 100% were set is not recorded. Most values in the screen are low, and negative values occur. Compounds were drawn at random from those tested, without regard to their results. Two or more numbers in one place are separate tests of the same structure; such repeats can differ widely.

A: 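Growth of Mycobacterium tuberculosis over 4 days (cholesterol / DPPC medium with tyloxapol); the read-out is not stated. Tested at 50 µM. The record gives no direction; compounds that gave an IC50 in retests scored well above the rest, so higher reads as more growth inhibition. About 69,000 compounds were tested under these conditions; 0.54% (about 370) showed 50% or more at least once.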
B: 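Whole-cell growth test on Mycobacterium tuberculosis, read after 3 days in glucose-containing 7H9 medium; the read-out is not stated. Concentration: 50 µM. Direction is inferred from retests: higher values go with more growth inhibition. Size under these conditions: about 69,000 compounds, about 760 of them at 50% or above in at least one test.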

CC(C)(C)NC(=O)CN1CCCNCC1 gave A: 3.337%; B: -7.002%.
[H][C@@]12CN(Cc3ccc(Cl)cc3)C[C@]1([H])OCC(=O)N2CC(N)=O gave A: -36.89%; B: -32.04% and -9.128%.
CCN(Cc1noc(C(C)(C)C)n1)Cc1ccc(C#N)cc1F gave A: 14.04%; B: 20.14%.
CCCNC(=O)C1CCN(Cc2csc(CC)n2)CC1 gave A: 7.308%; B: -2.857%.
COc1cc(OC)cc(N2CCC(NCc3cc[nH]n3)C2)c1 (centres unmarked) gave A: 0.8222%; B: 4.076%.
COCC(=O)N1CCC(c2cccc(Cc3ccc(F)cc3)n2)CC1 gave A: -21.77%; B: -5.842%.
CNc1cccc(C2CCCN(C(=O)c3cnccn3)C2)n1 (centres unmarked) gave A: 8.647%; B: 8.242%.
CC(C)Cc1cc(C(=O)N2CCC[C@H]2C(=O)N2CCOCC2)on1 gave A: 5.324%; B: -5.384% and 9.092%.
[H][C@]12CCN(Cc3ccco3)[C@@]1([H])CC[C@@H](COCC(=O)N1CCCC1)O2 gave A: -7.119%; B: 1.054%.
[H][C@@]12CN(C3CCOCC3)C[C@]1([H])N(CCCc1ccc(OC)cc1)C(=O)O2 gave A: 11.38%; B: 14.75%.
NC(=O)Cn1cc(NC(=O)N2CCCC(O)C2)cn1 (centres unmarked) gave A: 14.81%; B: 28.26%.
CNc1nccnc1C1CN(Cc2ccc3[nH]ccc3c2)CCO1 (centres unmarked) gave A: 18.79%; B: 7.604%.
CN(CCc1noc(C2CC2)n1)C(=O)CN1C(=O)COc2ccccc21 gave A: -0.6525%; B: -3.944%.
Cc1noc(CN(C)c2ccccc2)n1 gave A: 4.598%; B: -3.211% and -6.236%.
CN(Cc1cc2n(n1)CCNC2)Cc1n[nH]c2c1CCCCC2 gave A: -12.84%; B: 16.97%.
Cn1cc(CC(=O)N2CCCC(n3cncn3)C2)cn1 (centres unmarked) gave A: -0.9178%; B: -26.89%.
c1cn(Cc2nnc(C3CCN(C4CCOCC4)CC3)n2C2CC2)cn1 gave A: -20.88%; B: 9.333%.
CN(C)CC1CN(Cc2c(Cl)ccc3cccnc23)CCO1 (centres unmarked) gave A: 13.06%; B: -2.375%.
CC(C)S(=O)(=O)N(C)C(=O)CCc1ccsc1 gave A: 4.873% and 7.638%; B: 12.17%.
Cc1cc(NC(=O)CN2CCc3nn(C)c(=O)cc3C2)no1 gave A: -28.82%; B: -6.332%.
O=C1NCCCCC1NS(=O)(=O)N1CCCCCC1 (centres unmarked) gave A: 7.316%; B: -0.9086%.
CCc1ccc(CN2CCC(CNS(=O)(=O)C3CC3)C2)nc1 (centres unmarked) gave A: -7.133%; B: 5.305%.
O=C(NCC1CC1)C1=NOC2(CCN(S(=O)(=O)c3ccc(F)cc3)C2)C1 (centres unmarked) gave A: -27.21%; B: -14.7%.
CC(C(=O)NC1(C#N)CCCCC1)N1CCc2c(ncn2C2CC2)C1 (centres unmarked) gave A: 14.58%; B: -26.79% and -1.127%.
CC(C(=O)NCCc1cccs1)N1CCC(n2ccnc2)CC1 (centres unmarked) gave A: -12.93% and -1.563%; B: -27.01% and -0.3001%.
COC(CNC(=O)N1CCC(n2cncn2)CC1)c1ccccc1 (centres unmarked) gave A: -5.365%; B: -9.023%.
c1csc(-c2noc(CNCCn3cccn3)n2)c1 gave A: -0.2843%; B: 8.029%.
CC(C)OCc1ccc(CNC(=O)NC2(CO)CCCC2)cc1 gave A: 9.476%; B: -13.01%.
CCn1c(Cn2cncn2)nnc1C1CCN(Cc2cccnc2)CC1 gave A: -38.44%; B: -25.96%.
Cc1ccc(CC(=O)N2CCOCC2c2ncon2)cc1 (centres unmarked) gave A: 7.847%; B: -3.652% and -39.23%.
CCOC1CCCN(C(=O)NCCc2ccn(-c3ccccc3)n2)C1 (centres unmarked) gave A: -14.14%; B: -8.578%.
CC(C)OCCSc1nnnn1C1CCOCC1 gave A: 10.61%; B: -2.648%.
[H][C@@]12OCCN(Cc3nccs3)[C@@]1([H])CC[C@@H]2Oc1ccccn1 gave A: -4.941%; B: 15.53%.
O=C(O)C(F)(F)F.[H][C@]12CCCC(N(C)Cc3cccs3)[C@@]1([H])CN(C(=O)c1cnoc1C)C2 (some centres unmarked) gave A: 26.7%; B: 3.303% and 3.972%.
CCOC1COC2(CCN(Cc3cccc(C#N)c3)CC2)C1.O=C(O)C(F)(F)F (centres unmarked) gave A: 0.4147%; B: -9.485%.
CCn1nc2c(cc1=O)CN(Cc1coc(-c3ccccc3)n1)CC2 gave A: -17.24%; B: -1.507%.
O=C(O)C(F)(F)F.O=C(O)C(F)(F)F.[H][C@@]12CCN(Cc3ccsc3)C[C@]1([H])[C@@H](CN1CCOCC1)OC2 gave A: 0.5611%; B: -14.32%.
c1cc(CN2CCCC(c3nnc(-c4cnccn4)o3)C2)ccn1 (centres unmarked) gave A: 0.703%; B: 30%.
CS(=O)(=O)NC[C@]1(O)CCN(C(=O)Cc2cccs2)C[C@H]1O gave A: -17.18%; B: 32.68%.

The first 3 entries again:

compound	A	B
CC(C)(C)NC(=O)CN1CCCNCC1	3.337	-7.002
[H][C@@]12CN(Cc3ccc(Cl)cc3)C[C@]1([H])OCC(=O)N2CC(N)=O	-36.89	-32.04 and -9.128
CCN(Cc1noc(C(C)(C)C)n1)Cc1ccc(C#N)cc1F	14.04	20.14

Source: ChEMBL document CHEMBL3988442, “University of Dundee, Small-Polar-MMV Screening Library” (2021).